Record: PubChem BioAssay AID1259425 (University of Nebraska Medical Center, 2018)
Here is an unselected part of about 14,000 deposited reagents. Not all columns of the deposit are shown. Not stated in the record: the time to read-out.

- Screen: 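Compare each knockdown with KSR1 silencing using changes in marker transcripts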 (primary screen)
- Cell system: HCT116 human colon cancer cells
- Knock-down reagent: siRNA pool against human genes, 50 nM siRNA
- Measured: 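After 50 nM siRNA pool, branched-DNA assay measures six marker transcripts per well, minus blank, normalised to the geometric mean of two housekeeping transcripts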
- Direction: BNIP3L mRNA: higher = more BNIP3L transcript after knockdown; NDRG1 mRNA: higher = more NDRG1 transcript after knockdown

LYST
- BNIP3L mRNA, set 1: 0.0853
- NDRG1 mRNA, set 1: 0.141

POF1B
- BNIP3L mRNA, set 1: 0.16
- NDRG1 mRNA, set 1: 0.134

TSHB
- BNIP3L mRNA, set 1: 0.0965
- NDRG1 mRNA, set 1: 0.176

SEC24A
- BNIP3L mRNA, set 1: 0.122
- NDRG1 mRNA, set 1: 0.119

CTPS1
- BNIP3L mRNA, set 1: 0.0725
- NDRG1 mRNA, set 1: 0.261

RNFT1
- BNIP3L mRNA, set 1: 0.119
- NDRG1 mRNA, set 1: 0.177

ZNF266
- BNIP3L mRNA, set 1: 0.175
- NDRG1 mRNA, set 1: 0.194

Next part (2 carried over from the part before).
RNFT1
- BNIP3L mRNA, set 1: 0.119
- NDRG1 mRNA, set 1: 0.177

ZNF266
- BNIP3L mRNA, set 1: 0.175
- NDRG1 mRNA, set 1: 0.194

FBXO34
- BNIP3L mRNA, set 1: 0.0731
- NDRG1 mRNA, set 1: 0.526

RARRES2
- BNIP3L mRNA, set 1: 0.0489
- NDRG1 mRNA, set 1: 0.221

ATP6V0D1
- BNIP3L mRNA, set 1: 0.158
- NDRG1 mRNA, set 1: 0.232

KIF14
- BNIP3L mRNA, set 1: 0.0818
- NDRG1 mRNA, set 1: 0.13

PDZD2
- BNIP3L mRNA, set 1: 0.112
- NDRG1 mRNA, set 1: 0.285
